The supplement of paper PMC12578635
The other results are listed elsewhere or left out. Cut-off read from the data, not from the text of the source: active = 150% or more and inactive = the rest. Many values rest on one well or one pass, so single values are uncertain.

Tested on: Staphylococcus aureus JE2-lux inside RAW 264.7 macrophages
Test: intracellular bacterial bioluminescence relative to DMSO vehicle; higher = higher intracellular bacterial metabolic activity
Conditions: 10 µM; treatment time 4 h; gentamicin 50 µg/ml

SMILES	intracellular bacterial bioluminescence
Cc1nc(SCC(=O)c2ccc(Cl)cc2)c(C#N)c(C)c1C	inactive: 83.2%
O=C(Nc1ccccc1-c1ccccc1)C1CCN(c2cnccn2)CC1	inactive: 96.1%
O=C1Nc2c(Br)cc(Br)cc2/C1=N\NC(=O)c1ccco1	inactive: 109%
NC(=O)c1ccc(NC(=O)CSc2nc3ccccc3o2)cc1	inactive: 146%
Cc1ccccc1NC(=O)Cn1cc(S(=O)(=O)c2ccc(F)cc2)c(=O)c2cc3c(cc21)OCO3	inactive: 129%
COc1ccc(Nc2nnc(Cc3ccc(F)cc3)c(=O)[nH]2)cc1OC	inactive: 7.98%
Cc1occc1-c1nnc2sc(-c3ccc(-c4cccc([N+](=O)[O-])c4)o3)nn12	inactive: 97.3%
Cc1ccc(CNC(=O)N2CCC(n3cnc4cccnc43)CC2)cc1	inactive: 53.3%
COc1ccccc1NC(=O)N(CC(=O)Nc1sc(C)c(C)c1C(N)=O)C1CCCC1	inactive: 76.9%
COc1ccc(C(=O)N2CN(CCCn3ccnc3)Cc3c2sc(C)c3C)cc1	inactive: 93.2%
CCOC(=O)C1CCN(c2nnc(N3CCCCC3)c3ccccc23)CC1	inactive: 41.3%
O=C(CSc1ncccc1C(=O)O)Nc1nc2c(s1)CCCC2	inactive: 107%
O=c1[nH]ncc(N/N=C\c2ccc(O)cc2)c1Cl	inactive: 101%
NC(=O)c1nc(Nc2ccccc2)sc1NC(=O)C1CCCCC1	inactive: 90.7%
O=C(CSc1nc(-c2ccc3c(c2)OCO3)nc2cc(=O)[nH]n12)NCCCc1ccccc1	inactive: 129%
COc1ccc(/C=N/Nc2ncnc3[nH]cnc23)c(OC)c1	inactive: 102%
O=C(O)c1cc(Nc2nc(-c3ccccc3)c3cc(Br)ccc3n2)ccc1O	inactive: 98%
Cc1oc(-c2ccno2)cc1S(=O)(=O)NCC1CCCO1 (configuration not stated)	inactive: 112%
O=C(CSc1nncc(=O)[nH]1)Nc1cccc(Cl)c1Cl	inactive: 105%
CCCn1cnc2cc(-c3noc(CNC(=O)Cc4ccc(Cl)cc4)n3)ccc21	inactive: 25.8%
CCc1ccc(N2C(=O)CC(Sc3ncccc3C(=O)O)C2=O)cc1 (configuration not stated)	inactive: 108%
O=c1[nH]c2ccc(S(=O)(=O)N3CCc4nc(N5CCCCC5)ncc4C3)cc2o1	inactive: 83.2%
O=C(Cn1cc(C(=O)c2ccccc2)c(=O)c2cc3c(cc21)OCCO3)Nc1ccc2c(c1)OCO2	inactive: 117%

SMILES	intracellular bacterial bioluminescence
COc1ccc(Cl)c2sc(N(Cc3cccnc3)C(=O)c3c(F)cccc3F)nc12	inactive: 29.6%
O=C(O)c1ccccc1SC1CC(=O)N(c2ccc([N+](=O)[O-])cc2)C1=O (configuration not stated)	inactive: 111%
N=c1oc2c3c4c(cc2cc1C(=O)Nc1cccc(Cl)c1Cl)CCCN4CCC3	inactive: 121%
CCc1ccc2nc(NCCCNC(=O)C3CCCO3)c(C#N)cc2c1 (configuration not stated)	inactive: 125%
COc1ccccc1C1Nc2ccc(Br)cc2[C@H]2OCCC[C@@H]12 (some centres not stated)	inactive: 49.2%
O=C1NC2=C(C(=O)N(CC3CCCO3)C2)C(c2ccccc2)N1 (configuration not stated)	inactive: 107%
Cc1ccc(CNC(=O)CSc2nc(=O)[nH]cc2C)cc1	inactive: 111%
CC1(C)CC(=O)C2=C(C1)OC(N)=C(C#N)C2c1cccs1 (configuration not stated)	inactive: 93.8%
COc1ccc(-c2cc(=O)c3ccc(NC(C)=O)cc3o2)cc1	inactive: 128%
Cc1nc2ccc3nc(NC(=O)/C=C/c4ccccc4Cl)sc3c2s1	inactive: 118%
O=C(Nc1nc2c(cc3c4c(cccc42)CC3)s1)c1cc2ccccc2oc1=O	inactive: 108%
CCOC(=O)C1CCCN(C(=O)C(=O)c2c(C)n(C)c3ccccc23)C1 (configuration not stated)	inactive: 82.8%
CC1CCN(C(=O)Cn2c3c(c(=O)n4ncnc24)CCC3)CC1	inactive: 129%
Cc1ccc(C)c(N(CC(=O)NCCc2ccccc2)C(=O)c2csnn2)c1	inactive: 63.4%
CC(C)NC(=O)Cn1c2c(c(=O)n3ncnc13)CCC2	inactive: 104%
CSc1nc2ccc3nc(NC(=O)c4ccc(C#N)cc4)sc3c2s1	inactive: 117%
COc1ccccc1N1CCN(c2nn3cnnc3c3ccccc23)CC1	inactive: 94.3%
Cc1ccc(S(=O)(=O)Nc2ccc3nnc(-c4ccccc4)n3n2)c(C)c1	inactive: 106%
Fc1cccc2sc(NCc3ccccc3)nc12	inactive: 52.5%
COc1ccc(CCNC(=O)c2cnc3c(C)cccc3c2O)cc1OC	inactive: 86.8%
Cc1cccnc1NC(=O)NC1CC(=O)N(c2ccc(Cl)cc2)C1 (configuration not stated)	inactive: 97.6%
COc1ccc(-c2noc(N3CCC(C(=O)Nc4cccc(C)c4C)CC3)n2)cc1	inactive: 104%
Cc1ccc2cc(CCNC(=O)c3ccc(Br)o3)c(=O)[nH]c2c1C	inactive: 99.1%

SMILES	intracellular bacterial bioluminescence
Cc1ccc(-n2nc3c(c2NC(=O)c2ccc(OC(C)C)cc2)CS(=O)C3)cc1 (configuration not stated)	inactive: 108%
CCCN1CCC2(CC1)NC(=O)N(CC(=O)NCc1ccco1)C2=O	inactive: 105%
O=C(NCc1ccccc1)c1cnc2ccccc2c1O	inactive: 97.9%
Cc1cc2cc(CCNC(=O)C(C)Oc3ccccc3)c(=O)[nH]c2cc1C (configuration not stated)	inactive: 91.5%
COc1ccc2o/c(=N\c3sc4c(c3C(N)=O)CCCC4)c(C(N)=O)cc2c1	inactive: 97.2%
COc1ccc(Cn2c(C)cn3c4c(=O)n(CCCO)c(=O)n(C)c4nc23)cc1	inactive: 92.3%
O=C(Cn1cnc2c(cnn2-c2cccc(Cl)c2)c1=O)OCc1ccccc1	inactive: 93.7%
Cc1ccccc1OCC(=O)Nc1ccccc1SCc1nnc(-c2ccccc2)o1	inactive: 34.1%
COCCN1C(=O)C2C(c3ccccc3O)NN(Cc3ccccc3)C2C1=O (configuration not stated)	inactive: 98.8%
C=CCN1CC(C(=O)Nc2ccc3c(C)cc(C)nc3n2)CC1=O (configuration not stated)	inactive: 109%
CN1/C(=C(\C#N)C(=O)c2ccc(Cl)s2)Nc2ccccc21	inactive: 75.2%
Cc1cccn2c(=O)c(/C=C(\C#N)C(N)=O)c(Oc3ccc(Cl)cc3)nc12	inactive: 81.4%
CCOC(=O)CSc1ccc2nnc(-c3cccs3)n2n1	inactive: 120%
Cc1cc(NC(=O)CCCN2C(=O)c3cccc4cccc(c34)C2=O)n(-c2ccccc2)n1	inactive: 56%
Cc1ccc2oc(=O)c(-c3nc4ccc([N+](=O)[O-])cc4[nH]3)cc2c1	inactive: 107%
COc1ccc2nc(NC(=O)Nc3ccc(C)cc3Cl)sc2c1	inactive: 102%
Cc1cc(C)c2cc(C#N)c(N3CCCN(C(=O)NCc4ccccc4)CC3)nc2c1	inactive: 118%
COc1ccc(C2CC(c3cccc(NS(C)(=O)=O)c3)=NN2S(=O)(=O)c2ccc(C)cc2)cc1 (configuration not stated)	inactive: 52.3%
Cc1oc2ncnc(OCC(=O)NCC3CCCO3)c2c1C (configuration not stated)	inactive: 66%
COc1ccc(-c2nc3cc(C)ccn3c2NC(=O)CCc2ccccc2)cc1	inactive: 126%
CCOCCCNC(=O)CCn1cnc2c(-c3ccc(C)cc3)noc2c1=O	inactive: 67.3%
O=C(CC1Nc2ccccc2NC1=O)Nc1cc(Cl)cc(Cl)c1 (configuration not stated)	inactive: 95.9%
O=C1CC(N2CCN(Cc3ccccc3)CC2)C(=O)N1 (configuration not stated)	inactive: 101%

SMILES	intracellular bacterial bioluminescence
C=CCn1/c(=N/C(=O)c2cc(=O)c3ccccc3o2)sc2cccc(OC)c21	inactive: 140%
O=C1NC(=S)S/C1=C\c1nc2ccccc2[nH]1	inactive: 106%
COc1ccc2nc(NCCCNC(=S)Nc3cccc(Cl)c3)c(C#N)cc2c1	inactive: 72.5%
Cc1cc(C)nc(-n2[nH]c3nccc(-c4ccc5c(c4)OCO5)c3c2=O)n1	inactive: 136%
COc1cc(NC(=O)Cn2c(=O)n3nc(-c4ccc(C)cc4)nc3c3ccccc32)cc(OC)c1	inactive: 76.2%
COc1ccc(C(=O)N(Cc2ccc(Cl)cc2)c2nc3[nH]c(C)c(C)c(=O)n3n2)cc1	inactive: 86.5%
Cc1ccc(-c2nnc3ccccc3c2C(=O)Nc2cc(C)ccn2)cc1	inactive: 99%
Cc1ccc(Cn2c(=O)c3ccccc3n3c(=S)[nH]nc23)cc1	inactive: 107%
COc1cccc(C(=O)Nc2nc3ccc([N+](=O)[O-])cc3s2)c1OC	inactive: 87.3%
Cn1c2c(c(=O)n(C)c1=O)C(c1ccncc1)C1=C(CCCC1=O)N2 (configuration not stated)	inactive: 119%
Cc1ccc(Nc2c(C(=O)NC3CCCC3)cnc3c2c(C)nn3C)cc1	inactive: 98.8%
O=C(Nc1ccc2c(c1)C(=O)NC2=O)c1cccc(C(F)(F)F)c1	inactive: 128%
O=C(CC1Nc2cccc3cccc(c23)NC1=O)Nc1ccc(F)cc1 (configuration not stated)	inactive: 94.7%
CCCCN1C(=O)C(C#N)=C(C)/C(=C/Nc2ccccc2C(=O)O)C1=O	inactive: 92.8%
COc1ccc(N2CCCS2(=O)=O)cc1NC(=O)c1cccc(C(F)(F)F)c1	inactive: 98%
CCc1ccc(-c2cc(C(=O)N/N=C(\C)c3ccncc3)[nH]n2)cc1	active: 177%
O=[N+]([O-])c1ccc2oc(SCc3nc4ccccn4c3Br)nc2c1	inactive: 60.2%
Nc1c(C(=O)Nc2ccc(Cl)c(Cl)c2)c2ccccn2c1C(=O)c1cccs1	inactive: 56.6%
CCCN1CCN(c2nn3nnnc3c3ccccc23)CC1	active: 179%
Cc1cc(N2CCN(c3ccc(O)cc3)CC2)nc(-n2nc(C)cc2C)n1	inactive: 52.9%
CCOC(=O)C1CCN(c2nn3c(NC(C)(C)C)c(-c4cccc(F)c4)nc3s2)CC1	inactive: 127%
Cc1cc(N2C(=O)c3ccccc3C2C(=O)NCCC(C)C)ccc1Br (configuration not stated)	inactive: 124%
CCCOc1ccc(Oc2nc(C)nc3sc(C(=O)OCC)c(C)c23)cc1	inactive: 91%

Look-ups from the list:
intracellular bacterial bioluminescence, `Cc1ccc(-n2nc3c(c2NC(=O)c2ccc(OC(C)C)cc2)CS(=O)C3)cc1` (configuration not stated) reads inactive: 108%
intracellular bacterial bioluminescence, `Cc1cccn2c(=O)c(/C=C(\C#N)C(N)=O)c(Oc3ccc(Cl)cc3)nc12` reads inactive: 81.4%
intracellular bacterial bioluminescence, `COc1ccc(Cn2c(C)cn3c4c(=O)n(CCCO)c(=O)n(C)c4nc23)cc1` reads inactive: 92.3%
